Assay results reported in publication PMC10333294.
These are yes or no findings as the source states them, for the method shown. Binding seen in cells or lysates may run through a third protein. Some entries that bind do so weakly or less than the wild type. One block for each substance: values may come before it.

Amino acid sequences for entries named in this document (tags omitted).
UniProt Q9Y4X5: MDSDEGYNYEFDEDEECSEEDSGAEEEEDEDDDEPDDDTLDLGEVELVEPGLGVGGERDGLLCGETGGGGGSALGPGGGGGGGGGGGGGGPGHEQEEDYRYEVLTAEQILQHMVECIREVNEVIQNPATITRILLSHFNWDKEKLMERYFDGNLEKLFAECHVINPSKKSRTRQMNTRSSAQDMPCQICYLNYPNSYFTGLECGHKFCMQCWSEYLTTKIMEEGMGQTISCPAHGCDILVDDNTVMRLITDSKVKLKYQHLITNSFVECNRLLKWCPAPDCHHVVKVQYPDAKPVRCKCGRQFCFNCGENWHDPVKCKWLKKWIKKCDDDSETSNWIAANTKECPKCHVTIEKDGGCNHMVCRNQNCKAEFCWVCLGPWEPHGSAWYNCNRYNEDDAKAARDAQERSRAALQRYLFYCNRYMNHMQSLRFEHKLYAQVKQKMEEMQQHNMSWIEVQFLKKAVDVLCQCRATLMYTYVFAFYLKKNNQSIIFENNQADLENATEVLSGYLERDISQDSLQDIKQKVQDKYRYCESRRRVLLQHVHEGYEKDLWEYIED
UniProt P78527: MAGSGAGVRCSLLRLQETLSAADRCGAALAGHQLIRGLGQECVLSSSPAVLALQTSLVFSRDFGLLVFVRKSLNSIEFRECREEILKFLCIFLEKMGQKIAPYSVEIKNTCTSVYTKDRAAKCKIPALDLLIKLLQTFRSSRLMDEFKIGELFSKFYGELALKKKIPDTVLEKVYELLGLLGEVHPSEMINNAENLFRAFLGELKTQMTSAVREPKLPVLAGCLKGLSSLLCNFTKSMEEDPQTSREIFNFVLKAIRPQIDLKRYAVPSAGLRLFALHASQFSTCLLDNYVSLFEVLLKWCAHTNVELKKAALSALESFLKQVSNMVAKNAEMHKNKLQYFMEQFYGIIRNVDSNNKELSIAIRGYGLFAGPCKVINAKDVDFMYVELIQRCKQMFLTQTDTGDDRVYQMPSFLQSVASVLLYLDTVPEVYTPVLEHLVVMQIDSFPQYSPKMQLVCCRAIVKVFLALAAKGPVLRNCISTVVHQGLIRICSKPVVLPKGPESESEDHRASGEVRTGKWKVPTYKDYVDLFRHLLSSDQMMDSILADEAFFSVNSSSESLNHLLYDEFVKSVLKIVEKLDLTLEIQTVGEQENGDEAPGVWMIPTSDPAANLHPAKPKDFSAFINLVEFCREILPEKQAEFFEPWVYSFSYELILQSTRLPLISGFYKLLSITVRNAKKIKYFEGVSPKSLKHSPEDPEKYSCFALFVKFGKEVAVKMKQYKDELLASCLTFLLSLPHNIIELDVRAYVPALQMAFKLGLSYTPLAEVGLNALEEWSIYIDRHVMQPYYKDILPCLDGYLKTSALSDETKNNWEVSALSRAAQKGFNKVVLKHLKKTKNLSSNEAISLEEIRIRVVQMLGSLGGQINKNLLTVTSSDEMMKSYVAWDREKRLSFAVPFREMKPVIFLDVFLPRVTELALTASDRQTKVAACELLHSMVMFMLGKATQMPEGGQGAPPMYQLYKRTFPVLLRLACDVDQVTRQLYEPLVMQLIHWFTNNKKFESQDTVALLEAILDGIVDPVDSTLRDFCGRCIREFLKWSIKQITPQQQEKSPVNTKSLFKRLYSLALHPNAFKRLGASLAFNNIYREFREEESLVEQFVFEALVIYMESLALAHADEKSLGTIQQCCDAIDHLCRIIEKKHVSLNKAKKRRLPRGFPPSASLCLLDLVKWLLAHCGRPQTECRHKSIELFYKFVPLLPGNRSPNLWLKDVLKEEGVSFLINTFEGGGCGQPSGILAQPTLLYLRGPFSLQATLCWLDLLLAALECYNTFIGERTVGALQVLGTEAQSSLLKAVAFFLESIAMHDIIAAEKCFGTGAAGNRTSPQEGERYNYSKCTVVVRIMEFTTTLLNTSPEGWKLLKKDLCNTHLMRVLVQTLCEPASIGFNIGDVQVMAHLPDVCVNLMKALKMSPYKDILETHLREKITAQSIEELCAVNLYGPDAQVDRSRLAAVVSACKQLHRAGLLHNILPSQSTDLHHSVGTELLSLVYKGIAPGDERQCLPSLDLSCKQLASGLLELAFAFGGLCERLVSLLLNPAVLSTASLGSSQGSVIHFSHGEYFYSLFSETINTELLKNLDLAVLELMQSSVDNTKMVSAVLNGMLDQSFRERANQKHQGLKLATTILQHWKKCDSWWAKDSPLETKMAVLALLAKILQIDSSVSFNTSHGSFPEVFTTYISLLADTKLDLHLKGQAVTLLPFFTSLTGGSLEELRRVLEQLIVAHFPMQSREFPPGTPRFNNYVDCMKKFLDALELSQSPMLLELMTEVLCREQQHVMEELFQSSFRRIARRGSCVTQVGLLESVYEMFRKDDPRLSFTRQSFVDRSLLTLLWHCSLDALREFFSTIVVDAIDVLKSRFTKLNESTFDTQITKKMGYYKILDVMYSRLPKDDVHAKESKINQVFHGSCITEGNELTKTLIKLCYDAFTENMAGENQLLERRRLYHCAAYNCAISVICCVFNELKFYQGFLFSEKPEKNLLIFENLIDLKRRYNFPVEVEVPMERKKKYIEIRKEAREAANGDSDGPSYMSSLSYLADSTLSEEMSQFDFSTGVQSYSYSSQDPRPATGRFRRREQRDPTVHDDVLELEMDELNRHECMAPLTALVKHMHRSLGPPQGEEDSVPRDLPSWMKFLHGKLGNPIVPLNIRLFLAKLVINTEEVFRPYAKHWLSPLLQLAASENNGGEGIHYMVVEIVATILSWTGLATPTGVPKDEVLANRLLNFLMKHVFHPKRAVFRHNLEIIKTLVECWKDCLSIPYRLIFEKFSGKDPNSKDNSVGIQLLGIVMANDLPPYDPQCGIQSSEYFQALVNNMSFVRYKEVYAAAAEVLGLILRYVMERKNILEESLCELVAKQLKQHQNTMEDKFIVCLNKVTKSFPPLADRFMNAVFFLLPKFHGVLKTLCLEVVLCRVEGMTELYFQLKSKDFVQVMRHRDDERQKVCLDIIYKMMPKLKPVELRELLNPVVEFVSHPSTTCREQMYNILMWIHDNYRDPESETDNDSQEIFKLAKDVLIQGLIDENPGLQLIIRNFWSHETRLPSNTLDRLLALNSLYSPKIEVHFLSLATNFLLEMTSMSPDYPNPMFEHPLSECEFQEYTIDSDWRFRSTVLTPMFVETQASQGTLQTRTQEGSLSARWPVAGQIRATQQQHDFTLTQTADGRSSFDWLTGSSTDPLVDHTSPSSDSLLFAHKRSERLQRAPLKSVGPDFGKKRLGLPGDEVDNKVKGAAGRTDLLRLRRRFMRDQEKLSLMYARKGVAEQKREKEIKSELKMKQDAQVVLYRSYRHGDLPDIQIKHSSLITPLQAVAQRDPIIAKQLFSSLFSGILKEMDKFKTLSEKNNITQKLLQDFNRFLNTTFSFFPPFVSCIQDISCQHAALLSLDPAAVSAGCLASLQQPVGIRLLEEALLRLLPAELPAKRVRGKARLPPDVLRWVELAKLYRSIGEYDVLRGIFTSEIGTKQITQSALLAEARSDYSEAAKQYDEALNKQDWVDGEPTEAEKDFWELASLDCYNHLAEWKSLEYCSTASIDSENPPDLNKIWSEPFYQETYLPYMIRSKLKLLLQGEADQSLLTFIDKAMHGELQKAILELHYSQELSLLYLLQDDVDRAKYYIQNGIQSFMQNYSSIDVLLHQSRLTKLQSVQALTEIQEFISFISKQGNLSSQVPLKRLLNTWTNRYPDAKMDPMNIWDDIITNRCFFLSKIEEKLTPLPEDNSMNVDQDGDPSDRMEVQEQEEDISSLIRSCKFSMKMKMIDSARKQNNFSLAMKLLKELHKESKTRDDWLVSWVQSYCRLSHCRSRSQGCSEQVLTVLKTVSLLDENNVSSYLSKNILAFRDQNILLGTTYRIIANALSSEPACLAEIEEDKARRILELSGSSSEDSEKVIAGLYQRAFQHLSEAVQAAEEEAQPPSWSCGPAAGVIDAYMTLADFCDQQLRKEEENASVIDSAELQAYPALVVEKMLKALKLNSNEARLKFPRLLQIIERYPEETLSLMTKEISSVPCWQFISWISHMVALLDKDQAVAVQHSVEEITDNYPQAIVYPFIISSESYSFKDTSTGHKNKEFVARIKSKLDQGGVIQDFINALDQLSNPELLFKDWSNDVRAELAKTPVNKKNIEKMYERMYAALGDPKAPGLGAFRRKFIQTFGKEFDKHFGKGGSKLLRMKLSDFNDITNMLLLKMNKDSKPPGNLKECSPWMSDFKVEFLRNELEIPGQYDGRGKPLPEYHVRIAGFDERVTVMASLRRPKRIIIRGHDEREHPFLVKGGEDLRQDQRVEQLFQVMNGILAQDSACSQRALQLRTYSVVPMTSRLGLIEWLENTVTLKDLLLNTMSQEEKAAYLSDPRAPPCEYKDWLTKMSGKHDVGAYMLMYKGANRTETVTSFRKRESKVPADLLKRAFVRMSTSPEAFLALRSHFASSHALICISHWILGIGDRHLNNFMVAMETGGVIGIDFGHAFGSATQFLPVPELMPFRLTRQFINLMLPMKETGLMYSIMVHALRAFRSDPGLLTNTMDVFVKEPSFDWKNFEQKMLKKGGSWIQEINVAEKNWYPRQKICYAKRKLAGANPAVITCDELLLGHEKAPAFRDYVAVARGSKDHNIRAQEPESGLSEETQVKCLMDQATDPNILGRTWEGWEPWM

Key:
[1] = target: ARIH1 of the GST pull-down assay (human) (UniProt Q9Y4X5); assay: pull-down; GST pull-down; set-up not described in the text (Supplementary Fig. 11b, c)
[2] = target: ARIH1^-WT-HA (Ariadne RBR E3 ubiquitin-protein ligase 1, HA-tagged) (human) (UniProt Q9Y4X5); assay: co-IP; interaction of ARIH1 with DNA-PKcs with overexpressed G-Flag (Fig. 5i, Supplementary Fig. 11i); bait not stated
[3] = target: DNA-PKcs (DNA-dependent protein kinase catalytic subunit), endogenous (human (endogenous in HEK293T)) (UniProt P78527); assay: co-IP; endogenous DNA-PKcs immunoprecipitated with anti-DNA-PKcs from HEK293T cells, immunoprecipitates analysed with anti-ARIH1; IgG control

binding [1]: binds
Substance: DNA-PKcs of the GST pull-down assay (from UniProt P78527 1-4128)

binding [2]: binds
Substance: DNA-PKcs (DNA-dependent protein kinase catalytic subunit), endogenous (from UniProt P78527 1-4128)

binding [3]: binds
Substance: ARIH1 in HEK293T cells (detected with anti-ARIH1) (from UniProt Q9Y4X5 1-557) (enzyme)
